Reference: patent publication US7741288B2, “Methods of screening of PP1-interacting polypeptides or proteins, peptides inhibiting PP1c binding to Bcl-2 proteins, Bcl-xL and Bcl-w, and uses thereof” (Institut Pasteur, priority 2002, dated 2010)
Results are given in words; binding and its absence hold for the method and conditions named. For some assays here: In cells and extracts the contact can be indirect. Some results given as binding are weak or reduced against the parent protein; the word gives no strength. Blank lines part the entries; values can stand above or below the molecule they belong to.

By UniProt entry, the sequences of proteins in these tests, tags left out. Residues count along the entry.
UniProt P62137, residues 2-330: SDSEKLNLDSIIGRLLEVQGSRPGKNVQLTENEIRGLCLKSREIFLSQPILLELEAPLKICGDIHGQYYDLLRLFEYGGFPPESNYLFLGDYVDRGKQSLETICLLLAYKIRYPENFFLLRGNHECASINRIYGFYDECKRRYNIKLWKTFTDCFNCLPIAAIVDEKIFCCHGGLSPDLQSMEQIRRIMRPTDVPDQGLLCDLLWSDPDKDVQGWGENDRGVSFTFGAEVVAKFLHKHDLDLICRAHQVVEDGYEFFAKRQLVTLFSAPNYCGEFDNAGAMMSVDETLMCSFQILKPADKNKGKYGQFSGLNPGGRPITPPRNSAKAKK
UniProt Q64373: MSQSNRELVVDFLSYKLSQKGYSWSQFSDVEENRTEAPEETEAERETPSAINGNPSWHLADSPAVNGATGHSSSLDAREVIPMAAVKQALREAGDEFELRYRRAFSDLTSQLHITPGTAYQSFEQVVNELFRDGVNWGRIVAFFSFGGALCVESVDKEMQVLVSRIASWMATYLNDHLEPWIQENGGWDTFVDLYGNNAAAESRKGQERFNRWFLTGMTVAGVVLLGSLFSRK
UniProt P06332, residues 27-457: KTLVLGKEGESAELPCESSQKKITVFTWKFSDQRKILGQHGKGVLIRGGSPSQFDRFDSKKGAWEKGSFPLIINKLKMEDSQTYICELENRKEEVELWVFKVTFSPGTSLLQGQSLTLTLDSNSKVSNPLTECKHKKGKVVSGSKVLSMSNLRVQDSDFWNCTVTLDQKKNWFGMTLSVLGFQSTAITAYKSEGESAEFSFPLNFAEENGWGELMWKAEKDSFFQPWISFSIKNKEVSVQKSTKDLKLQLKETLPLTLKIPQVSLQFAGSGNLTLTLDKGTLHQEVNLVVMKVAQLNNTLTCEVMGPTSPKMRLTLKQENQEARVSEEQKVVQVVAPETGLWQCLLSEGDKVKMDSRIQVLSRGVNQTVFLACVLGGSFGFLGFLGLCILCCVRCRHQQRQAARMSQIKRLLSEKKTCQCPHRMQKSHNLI

What was measured:
[1] = target: T1, Bad, endogenous in TS1αβ cells (murine (TS1αβ murine T cell line)) (UniProt Q61337); experiment: co-immunoprecipitation with anti-Bad, Western blot (also detergent-free and digitonin lysates, data not shown)
T1 sequence (phosphoserine 136 in IL-4-stimulated cells, looked up): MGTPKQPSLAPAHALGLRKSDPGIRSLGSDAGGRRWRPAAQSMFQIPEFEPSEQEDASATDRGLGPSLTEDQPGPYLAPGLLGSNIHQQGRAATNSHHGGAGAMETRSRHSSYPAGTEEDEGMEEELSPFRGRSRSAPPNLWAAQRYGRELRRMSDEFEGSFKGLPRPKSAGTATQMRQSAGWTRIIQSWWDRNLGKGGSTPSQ

[2] = target: T1, Bad, endogenous in TS1αβ cells (murine (TS1αβ murine T cell line)); experiment: anti-Bad immunoprecipitation of control extracts of IL-4 stimulated cells, Western blot
[3] = target: T1, Bad, endogenous in TS1αβ cells (murine (TS1αβ murine T cell line)); experiment: co-immunoprecipitation with anti-Bad from freshly isolated thymocytes, Western blot
[4] = target: PP1c, catalytic subunit of the serine/threonine phosphatase PP1, endogenous in TS1αβ cells (murine (TS1αβ murine T cell line)) (UniProt P62137); experiment: anti-PP1c immunoprecipitation of control extracts of IL-4 stimulated cells, Western blot
[5] = target: T1, Bad, endogenous in TS1αβ cells (murine (TS1αβ murine T cell line)); experiment: co-immunoprecipitation and Western blot, title of FIG. 1
[6] = target: PP1c, catalytic subunit of the serine/threonine phosphatase PP1, endogenous in TS1αβ cells (murine (TS1αβ murine T cell line)) (UniProt P62137); experiment: as above
[7] = target: T1, Bad, endogenous in TS1αβ cells (murine (TS1αβ murine T cell line)); experiment: control anti-Bad immunoprecipitates of the competition experiment, Western blot
[8] = target: PP1c, catalytic subunit of the serine/threonine phosphatase PP1, endogenous in TS1αβ cells (murine (TS1αβ murine T cell line)) (UniProt P62137); experiment: co-immunoprecipitation with anti-PP1c from freshly isolated thymocytes, Western blot
[9] = target: PP1c, catalytic subunit of the serine/threonine phosphatase PP1, endogenous in TS1αβ cells (murine (TS1αβ murine T cell line)) (UniProt P62137); experiment: co-immunoprecipitation, blot with anti-PP1c
[10] = target: PP1c, catalytic subunit of the serine/threonine phosphatase PP1, endogenous in TS1αβ cells (murine (TS1αβ murine T cell line)) (UniProt P62137); experiment: immunoprecipitation from IL-4 treated TS1αβ cells, blot with anti-PP1c
[11] = target: Bcl-xL, endogenous in TS1αβ cells (murine (TS1αβ murine T cell line)) (UniProt Q64373); experiment: co-immunoprecipitation with anti-Bcl-xL from cytoplasmic extracts, Western blot
[12] = target: T2, Bcl-w, endogenous in TS1αβ cells (murine (TS1αβ murine T cell line)) (UniProt P70345); experiment: co-immunoprecipitation with anti-Bcl-w from cytoplasmic extracts, Western blot
T2 sequence (serine phosphorylated in IL-4-stimulated cells (site not stated), looked up): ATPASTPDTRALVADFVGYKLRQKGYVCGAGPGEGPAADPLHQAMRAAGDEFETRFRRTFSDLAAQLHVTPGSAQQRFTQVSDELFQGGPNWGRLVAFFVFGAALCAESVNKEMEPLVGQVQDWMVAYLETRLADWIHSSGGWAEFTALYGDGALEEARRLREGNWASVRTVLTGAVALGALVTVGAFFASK

binding [1]: binds | binding [2]: binds | binding [4]: binds | binding [5]: binds | binding [6]: binds | binding [7]: binds
B1: Bcl-w, endogenous in TS1αβ cells (protein, murine (TS1αβ murine T cell line), UniProt P70345 2-193, looked up)
chain: T2 sequence (serine phosphorylated in IL-4-stimulated cells (site not stated), looked up)
modifications: serine phosphorylated in IL-4-stimulated cells (site not stated)

binding [11]: binds | binding [12]: binds
B2: Bad, endogenous in TS1αβ cells (protein, murine (TS1αβ murine T cell line), UniProt Q61337 1-204, looked up)
chain: T1 sequence (phosphoserine 136 in IL-4-stimulated cells, looked up)
modifications: phosphoserine 136 in IL-4-stimulated cells

More lines, now with the values behind:

Molecule: Bcl-xL, endogenous in TS1αβ cells (from UniProt Q64373 1-233)
binding [1]: binds | binding [2]: binds | binding [3]: binds | binding [4]: binds | binding [5]: binds | binding [6]: binds | binding [7]: binds | binding [8]: binds

Molecule: CD4, endogenous in TS1αβ cells (from UniProt P06332 27-457) (receptor)
binding [9]: binds | binding [10]: binds

Molecule: PP1c, catalytic subunit of the serine/threonine phosphatase PP1, endogenous in TS1αβ cells (from UniProt P62137 2-330) (enzyme)
binding [11]: binds | binding [12]: binds
